Measured values as given in patent US20250051474A1, “ANTI-CD97 ANTIBODIES AND ANTIBODY-DRUG CONJUGATES” (New York University, priority 2023, published 2025).

Tested on: truncation mutants of CD97
Assay: Epitope mapping using ExpiCHO cells expressing truncation mutants of CD97
Assay type: binding, human
Details: IgG1 LALA-PG, EGF-like domains deleted from the N-terminus

Row | Molecule | epitope (CD97 domain bound)
1 | 2V10: anti-CD97 antibody clone, VL SEQ ID NO: 63, VH SEQ ID NO: 64 (antibody, V domains shown) VH: EVQLVESGGGLVQPGGSLRLSCAASGFTISSSSIHWVRQAPGKGLEWVAYIYPSSGSTSYADSVKGRFTISADTSKNTAYLQMNSLRAEDTAVYYCARPWYYSTFNKKWWDYQGLDYWGQGTLVTVSS VL: DIQMTQSPSSLSASVGDRVTITCRASQSVSSAVAWYQQKPGKAPKLLIYSASSLYSGVPSRFSGSRSGTDFTLTISSLQPEDFATYYCQQSWWDPITFGQGTKVEIKRTV | EGF1
2 | C27: anti-CD97 antibody clone, VL SEQ ID NO: 21, VH SEQ ID NO: 46 (antibody, V domains shown) VH: EVQLVESGGGLVQPGGSLRLSCAASGFTLSSSSIHWVRQAPGKGLEWVASIYSYYGSTYYADSVKGRFTISADTSKNTAYLQMNSLRAEDTAVYYCARYRGNMYYWESWYGSYWALDYWGQGTLVTVSS VL: DIQMTQSPSSLSASVGDRVTITCRASQSVSSAVAWYQQKPGKAPKLLIYSASSLYSGVPSRFSGSRSGTDFTLTISSLQPEDFATYYCQQSSSSLITFGQGTKVEIKRTV | EGF3
